In US8927024B1, “Antimicrobial polyanhydride nanoparticles” (priority 2009, dated 2015):
At least one compound was matched to its structure with a doubt left.

Experiments:
[1] = test system: intracellular Brucella abortus 2308 in human monocytes (THP-1); assay type: cell-based
Brucella canis = assay type: cell-based

## C[C@H]1c2cccc(O)c2C(=O)C2=C(O)[C@]3(O)C(=O)C(C(N)=O)=C(O)[C@@H](N(C)C)[C@@H]3[C@@H](O)[C@@H]21 [soluble doxycycline, doxycycline]
[1]
  entry of the bacteria and replication within cells: reduced
Brucella canis
  zones of inhibition after serial disc transfer: no zones of inhibition
